US20180000817A1, “TREATMENT OF HUTCHINSON-GILFORD PROGERIA SYNDROME AND DISEASES RELATED TO VASCULAR AGEING” (BIOCANT - ASSOCIAÇÃO DE TRANSFERÊNCIA DE TECNOLOGIA, priority 2015, published 2018)
At least one compound was matched to its structure with a doubt left. Some entries share one result that the patent states for a list of compounds.

Experiments:
HGPS-iPSC SMCs [1] = test: Cell detachment under arterial flow in microfluidic system (loss of function studies); type: cell-based, human; conditions: Tipifarnib 1 μM, Lonafarnib 20 μM; for time cells maintained under flow conditions: HGPS-iPSC SMC clone 1
Protocol: After 4 h, a confluent cell layer was formed, which was then perfused with SmGM-2 medium at physiological flow rate (20 dyne/cm^2). Unless specified, all tests were performed at day 0 and after 4 days on flow culture conditions. Cell number and cell clumps were determined on slides stained with DAPI (20×) and normalized by image area (0.3524 mm^2). Cell clumps areas were evaluated by Image J software.
In case of calcification inhibition studies, cells were treated with SmGM-2 medium containing sodium pyrophosphate (0.9 mM, Sigma), and in case of farnesyltrasferase inhibitor studies, cells were treated with SmGM-2 medium containing Tipifarnib (1 μM) or Lonafarnib (20 μM, Absouce Diagnostics). In MMP, calcification and farnesyltransferase inhibition studies, cells were perfused with medium containing the drug at a flow rate of 20 dyne/cm^2. Medium was changed every 7 days. Cell number and viability (Presto Blue assay) was monitored overtime. In case of MMP-13 inhibition studies, MMP activity was assessed at day 4, and the percentage of progerin positive cells and the expression of phosphatase alkaline were evaluated at day 7.
The complexation of siRNAs with lipofectamine was allowed to proceed for 40 min at room temperature. […] The culture media was changed after 72 h.

HGPS-iPSC SMCs [2] = test: Response to farnesyltransferase inhibitor: prelamin A and nuclear morphology by immunofluorescence; type: cell-based, human; conditions: 1 μM
Protocol: To evaluate whether HGPS-iPSC SMCs could respond to farnesyltransferase inhibitors, as shown for other progeria cell models, cells were treated with one dose of Tipifarnib (1 μM) and after 48 h cells were characterized for the expression of prelamin A. As expected, HGPS-iPSC SMCs accumulate nuclear prelamin A (approximately 95% of the cells), as shown by immunofluorescence (FIG. 12).
Immunofluorescence analysis—In an embodiment, cells were washed with PBS, fixed with 4% paraformaldehyde (Electron Microscopy Sciences) for 15 min at room temperature and washed again with PBS. […] Binding of primary antibodies to specific cells was detected with anti-mouse IgG Cy3 (Sigma) or anti-rabbit IgG Cy3 (JacksonImmunoResearch). Cell nuclei were stained with 4′, 6′-diamidino-2-phenylindole (DAPI) (Sigma) and the slides examined with a regular (Zeiss) or high-content fluorescence microscope (IN Cell 2200, GE Healthcare). Image) software was used to quantify the overall intensity of each image, which was then normalized for cell number.

Structure (SMILES)	time cells maintained under flow conditions (HGPS-iPSC SMCs [1])	cellular detachment (HGPS-iPSC SMCs [1]; HGPS-iPSC SMC clone 1, arterial flow)	nuclear shape abnormalities and nuclear blebbing (HGPS-iPSC SMCs [2])
NC(=O)N1CCC(CC(=O)N2CCC([C@H]3c4ncc(Br)cc4CCc4cc(Cl)cc(Br)c43)CC2)CC1 [Lonafarnib]	up to 9 days		
Cn1cncc1[C@@](N)(c1ccc(Cl)cc1)c1ccc2c(c1)c(-c1cccc(Cl)c1)cc(=O)n2C [Tipifarnib]	up to 9 days	able to decrease cellular detachment	decrease in the nuclear shape abnormalities and nuclear blebbing
